Results are given in words; binding and its absence hold for the method and conditions named. A result given as binding can be weak or reduced; the word gives no strength. Tags and fused reporters may be left off the sequences shown.

Assay [1] concerns the target T1, GST-Su(Hw) (Drosophila) (UniProt P08970).
T1 sequence: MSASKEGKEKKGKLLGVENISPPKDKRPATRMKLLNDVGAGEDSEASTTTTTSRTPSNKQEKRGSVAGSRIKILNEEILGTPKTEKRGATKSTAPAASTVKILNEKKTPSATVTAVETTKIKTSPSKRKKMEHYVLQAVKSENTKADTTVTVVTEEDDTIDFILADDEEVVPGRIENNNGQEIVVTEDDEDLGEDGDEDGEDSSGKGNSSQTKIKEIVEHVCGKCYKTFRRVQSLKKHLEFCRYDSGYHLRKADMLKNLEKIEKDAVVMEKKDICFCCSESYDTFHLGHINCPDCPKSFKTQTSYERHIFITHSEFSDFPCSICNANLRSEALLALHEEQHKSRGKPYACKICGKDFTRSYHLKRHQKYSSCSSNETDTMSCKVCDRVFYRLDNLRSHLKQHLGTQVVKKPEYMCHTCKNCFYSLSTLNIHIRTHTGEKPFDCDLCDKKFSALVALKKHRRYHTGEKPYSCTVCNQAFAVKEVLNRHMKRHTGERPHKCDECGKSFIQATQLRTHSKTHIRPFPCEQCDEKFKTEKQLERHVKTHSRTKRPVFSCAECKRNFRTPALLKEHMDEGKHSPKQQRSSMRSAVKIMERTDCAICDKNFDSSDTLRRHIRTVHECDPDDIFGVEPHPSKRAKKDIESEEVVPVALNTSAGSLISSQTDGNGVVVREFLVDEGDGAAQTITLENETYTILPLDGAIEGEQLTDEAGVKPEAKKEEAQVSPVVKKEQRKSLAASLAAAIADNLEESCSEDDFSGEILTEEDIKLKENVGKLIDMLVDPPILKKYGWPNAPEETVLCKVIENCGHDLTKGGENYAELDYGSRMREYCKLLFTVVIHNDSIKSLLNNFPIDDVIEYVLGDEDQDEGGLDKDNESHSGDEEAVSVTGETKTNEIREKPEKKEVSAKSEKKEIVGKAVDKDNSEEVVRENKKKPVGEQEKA
The assay is described as follows: pull-down; 2 µg GST or GST fusion protein immobilised on Glutathione-Agarose, 35 µg soluble His-Mod(mdg4)2.2 in 350 µL PBSMT (137 mM NaCl, 250 mM MgCl2, 0.3% Triton X-100, 1 mM DTT, 100 mg/mL BSA), 4°C, 2 h, 5 washes; bound protein detected by Western blotting; both purified. On the technique in general: In western blotting, separated proteins are transferred to a membrane and probed.

Assay [2] addresses GST-Mod(mdg4)2.2 (Drosophila). In words: pull-down; GST or GST fusion protein immobilised on Glutathione-Agarose, soluble His-Su(Hw) in HBSM (50 mM HEPES pH 6.7, 150 mM NaCl, 5 mM KCl, 2.5 mM MgCl2) with 0.3% Triton-X 100, 0.2 M KCl, 1 mM DTT, 100 mg/mL BSA, 4°C, 2 h; bound protein detected by Western blotting; both purified.
Assay [3] concerns the target GST-Shep isoform E (Drosophila (Oregon R)). The description is as above.
Assay [4] deals with GST-Shep isoform A (Drosophila (Oregon R)). The assay is described as above.
Assay [5] has as its target GST-Shep isoform B/D (Drosophila (Oregon R)). The assay is described as above.

As to His-Mod(mdg4)2.2 (Drosophila), the binding result in assay [1] is reported as “binds”.

B1: His-Su(Hw) (protein, UniProt P08970 1-941)
chain: MSASKEGKEKKGKLLGVENISPPKDKRPATRMKLLNDVGAGEDSEASTTTTTSRTPSNKQEKRGSVAGSRIKILNEEILGTPKTEKRGATKSTAPAASTVKILNEKKTPSATVTAVETTKIKTSPSKRKKMEHYVLQAVKSENTKADTTVTVVTEEDDTIDFILADDEEVVPGRIENNNGQEIVVTEDDEDLGEDGDEDGEDSSGKGNSSQTKIKEIVEHVCGKCYKTFRRVQSLKKHLEFCRYDSGYHLRKADMLKNLEKIEKDAVVMEKKDICFCCSESYDTFHLGHINCPDCPKSFKTQTSYERHIFITHSEFSDFPCSICNANLRSEALLALHEEQHKSRGKPYACKICGKDFTRSYHLKRHQKYSSCSSNETDTMSCKVCDRVFYRLDNLRSHLKQHLGTQVVKKPEYMCHTCKNCFYSLSTLNIHIRTHTGEKPFDCDLCDKKFSALVALKKHRRYHTGEKPYSCTVCNQAFAVKEVLNRHMKRHTGERPHKCDECGKSFIQATQLRTHSKTHIRPFPCEQCDEKFKTEKQLERHVKTHSRTKRPVFSCAECKRNFRTPALLKEHMDEGKHSPKQQRSSMRSAVKIMERTDCAICDKNFDSSDTLRRHIRTVHECDPDDIFGVEPHPSKRAKKDIESEEVVPVALNTSAGSLISSQTDGNGVVVREFLVDEGDGAAQTITLENETYTILPLDGAIEGEQLTDEAGVKPEAKKEEAQVSPVVKKEQRKSLAASLAAAIADNLEESCSEDDFSGEILTEEDIKLKENVGKLIDMLVDPPILKKYGWPNAPEETVLCKVIENCGHDLTKGGENYAELDYGSRMREYCKLLFTVVIHNDSIKSLLNNFPIDDVIEYVLGDEDQDEGGLDKDNESHSGDEEAVSVTGETKTNEIREKPEKKEVSAKSEKKEIVGKAVDKDNSEEVVRENKKKPVGEQEKA
Take B1: the binding entry in assay [2], in assay [3], in assay [4] and in assay [5] was “binds” each time.

The values above are taken from paper PMC3510032.
